# In patent US20200002434A1 (BIOSION, published 2020):
# No constants are given. Whether binding was seen depends on the method and setting. Some results given as binding are weak or reduced against the parent protein; the word gives no strength.
# Legend:
# [1] = biological target: recombinant Macaca fascicularis ErbB2-ECD (Macaca fascicularis); experiment: indirect ELISA, coated ErbB2-ECD 1 ug/ml
# [2] = biological target: recombinant Macaca fascicularis ErbB2-ECD (Macaca fascicularis); experiment: indirect ELISA
# [3] = biological target: recombinant Macaca fascicularis ErbB2-ECD (Macaca fascicularis); experiment: indirect ELISA, coated ErbB2-ECD
binding [1],binding [2],binding [3],Binder
binds,binds,,"4C9 mouse anti-ErbB2 monoclonal antibody (antibody, mouse IgG1, V domains shown, also called 4C9G3F5; IgG 4C9) VH: QVQLQQSGAELARPGASVKMSCKASGYTFTSYTMHWVKQRPGQGLDWIGYINPSSGYTTYNQKFKDKATLTADKSSSTAYMQLSSLASADSAVYYCARASAYSLDYWGQGTTLTVSS VL: DIQMTQSPSSLSASLGGRVTITCKASHDIDRYIAWYQHKPGKGPRLLIHYTSTLQPGIPSRFSGSGSGRDYSFSISNLEPEDIATYYCLKYDNLLWTFGGGTKLEIT"
binds,binds,,"5G9 mouse anti-ErbB2 monoclonal antibody (antibody, mouse IgG1, V domains shown, also called 5G91B42A3; IgG 5G9) VH: QVQLQQSGAELARPGASVKMSCKTSGYTFSSYTIHWVKQRPGQGLDWIGYINPSSDYTAYNQKFRDKATLTADQSSNTAYMQLSSLASADSAVYYCARASAFSLDFWGQGTTLTVSS VL: DIQMTQSPSSLSASLGGKVTISCKASHDIDRYIAWYQHKPGKGPRLLIHYTSTLQPGIPSRFSGSGSGRDYSFSISNLEPEDVATYYCLNYDNLLWTFGGGTKLEIT"
binds,binds,,"4G6 mouse anti-ErbB2 monoclonal antibody (antibody, mouse IgG1, V domains shown, also called 4G6C9B8; IgG 4G6) VH: QVQLQQSGAELARPGASVKMSCKASGYTFTSYTMHWVKQRPGQGLEWIGYINPSSAYTNYNQKFKDKATLTADKSSSTANMQLNSLTSEDSAVYYCARASAYSLDYWGQGTALTVSS VL: DIQMTQSPSSLSASLGGKVTITCKASQDINKYIAWYQHKPGKGPRLLIHSTSTLYPGIPSRFSGSGSGRDYSFRITNLEPEDIATYYCLQYDNLLWTFGGGTKVGIR"
,,binds,"5G9 chimera (antibody, V domains shown, also called 5G9 chimeric; 5G9 chimeric antibody) VH: QVQLQQSGAELARPGASVKMSCKTSGYTFSSYTIHWVKQRPGQGLDWIGYINPSSDYTAYNQKFRDKATLTADQSSNTAYMQLSSLASADSAVYYCARASAFSLDFWGQGTTLTVSS VL: DIQMTQSPSSLSASLGGKVTISCKASHDIDRYIAWYQHKPGKGPRLLIHYTSTLQPGIPSRFSGSGSGRDYSFSISNLEPEDVATYYCLNYDNLLWTFGGGTKLEIT"
,,binds,"4C9 chimera (antibody, V domains shown, also called 4C9 chimeric antibody) VH: QVQLQQSGAELARPGASVKMSCKASGYTFTSYTMHWVKQRPGQGLDWIGYINPSSGYTTYNQKFKDKATLTADKSSSTAYMQLSSLASADSAVYYCARASAYSLDYWGQGTTLTVSS VL: DIQMTQSPSSLSASLGGRVTITCKASHDIDRYIAWYQHKPGKGPRLLIHYTSTLQPGIPSRFSGSGSGRDYSFSISNLEPEDIATYYCLKYDNLLWTFGGGTKLEIT"
,,binds,"4G6 chimera (antibody, V domains shown, also called 4G6 chimeric antibody) VH: QVQLQQSGAELARPGASVKMSCKASGYTFTSYTMHWVKQRPGQGLEWIGYINPSSAYTNYNQKFKDKATLTADKSSSTANMQLNSLTSEDSAVYYCARASAYSLDYWGQGTALTVSS VL: DIQMTQSPSSLSASLGGKVTITCKASQDINKYIAWYQHKPGKGPRLLIHSTSTLYPGIPSRFSGSGSGRDYSFRITNLEPEDIATYYCLQYDNLLWTFGGGTKVGIR"
,,binds,"4H2 chimera (antibody, V domains shown, also called 4H2 chimeric antibody) VH: QVQLQQSGAELARPGASVKMSCKASGFTFTSYTIHWVKQRPGQGLDWIGYINPSSGYTTYNQRFKDKATLTADKSSSTAYMQLSSLTSADSAVYYCARASAYSLDYWGQGTTLTVSS VL: DIQMTQSPSSLSASLGGKVTITCKASQDIDRYIAWYQHKPGKGPRLLIHYTSTLQPGIPSRFSGSGSGRNYSFSISNLEPEDIATYYCLKYDNLLWTFGGGTKLEIK"
,,binds,"5F12 chimera (antibody, V domains shown, also called 5F12 chimeric; 5F12 chimeric antibody) VH: QVQLQQSGAELARPGASVKMSCKASGYTFTSYTMHWIKQRPGQGLEWIGYINPSSSYTNYNQNFKDKATLTADKSSSTANMQLNSLTSEDSAVYYCARASSYSLDYWGQGTALTVSS VL: DIQMTQSPSSLSTSLGGKVTITCKASQDINKYIAWYQHKPGKGPRLLIHSTSTLYPGIPSRFSGSGSGKDYSFRITNLEPEDIATYYCLQYDNLLWTFGGGTKLGIR"
binds,binds,,"4H2 mouse anti-ErbB2 monoclonal antibody (antibody, mouse IgG1, V domains shown, also called 4H2H2H9; IgG 4H2) VH: QVQLQQSGAELARPGASVKMSCKASGFTFTSYTIHWVKQRPGQGLDWIGYINPSSGYTTYNQRFKDKATLTADKSSSTAYMQLSSLTSADSAVYYCARASAYSLDYWGQGTTLTVSS VL: DIQMTQSPSSLSASLGGKVTITCKASQDIDRYIAWYQHKPGKGPRLLIHYTSTLQPGIPSRFSGSGSGRNYSFSISNLEPEDIATYYCLKYDNLLWTFGGGTKLEIK"
binds,binds,,"5F12 mouse anti-ErbB2 monoclonal antibody (antibody, mouse IgG1, V domains shown, also called 5F12E5A8; IgG 5F12) VH: QVQLQQSGAELARPGASVKMSCKASGYTFTSYTMHWIKQRPGQGLEWIGYINPSSSYTNYNQNFKDKATLTADKSSSTANMQLNSLTSEDSAVYYCARASSYSLDYWGQGTALTVSS VL: DIQMTQSPSSLSTSLGGKVTITCKASQDINKYIAWYQHKPGKGPRLLIHSTSTLYPGIPSRFSGSGSGKDYSFRITNLEPEDIATYYCLQYDNLLWTFGGGTKLGIR"
